No constants are given. Whether binding was seen depends on the method and setting. Some entries that bind do so weakly or less than the wild type.
T1: S. cerevisiae Apc5 (S. cerevisiae) (UniProt Q08683)
T1 sequence: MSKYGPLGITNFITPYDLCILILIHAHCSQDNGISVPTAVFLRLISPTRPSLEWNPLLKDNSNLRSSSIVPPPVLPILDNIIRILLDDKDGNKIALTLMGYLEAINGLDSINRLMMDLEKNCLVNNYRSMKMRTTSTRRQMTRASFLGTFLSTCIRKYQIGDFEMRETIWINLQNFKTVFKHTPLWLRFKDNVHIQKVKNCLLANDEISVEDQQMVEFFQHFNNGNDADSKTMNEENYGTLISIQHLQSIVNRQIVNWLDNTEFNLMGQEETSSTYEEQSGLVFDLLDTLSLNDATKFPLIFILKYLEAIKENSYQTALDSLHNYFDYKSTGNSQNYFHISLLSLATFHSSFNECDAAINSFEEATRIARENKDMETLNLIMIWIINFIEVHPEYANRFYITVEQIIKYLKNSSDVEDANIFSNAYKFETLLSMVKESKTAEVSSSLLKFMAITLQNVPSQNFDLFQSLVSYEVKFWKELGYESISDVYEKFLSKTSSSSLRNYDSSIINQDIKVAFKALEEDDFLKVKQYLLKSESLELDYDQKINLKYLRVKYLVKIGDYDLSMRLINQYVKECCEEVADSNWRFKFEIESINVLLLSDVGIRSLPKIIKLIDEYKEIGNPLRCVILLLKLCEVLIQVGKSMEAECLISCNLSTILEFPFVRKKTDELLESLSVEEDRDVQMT

T2: S. pombe Apc5 (S. pombe) (UniProt Q9P4W7)
T2 sequence: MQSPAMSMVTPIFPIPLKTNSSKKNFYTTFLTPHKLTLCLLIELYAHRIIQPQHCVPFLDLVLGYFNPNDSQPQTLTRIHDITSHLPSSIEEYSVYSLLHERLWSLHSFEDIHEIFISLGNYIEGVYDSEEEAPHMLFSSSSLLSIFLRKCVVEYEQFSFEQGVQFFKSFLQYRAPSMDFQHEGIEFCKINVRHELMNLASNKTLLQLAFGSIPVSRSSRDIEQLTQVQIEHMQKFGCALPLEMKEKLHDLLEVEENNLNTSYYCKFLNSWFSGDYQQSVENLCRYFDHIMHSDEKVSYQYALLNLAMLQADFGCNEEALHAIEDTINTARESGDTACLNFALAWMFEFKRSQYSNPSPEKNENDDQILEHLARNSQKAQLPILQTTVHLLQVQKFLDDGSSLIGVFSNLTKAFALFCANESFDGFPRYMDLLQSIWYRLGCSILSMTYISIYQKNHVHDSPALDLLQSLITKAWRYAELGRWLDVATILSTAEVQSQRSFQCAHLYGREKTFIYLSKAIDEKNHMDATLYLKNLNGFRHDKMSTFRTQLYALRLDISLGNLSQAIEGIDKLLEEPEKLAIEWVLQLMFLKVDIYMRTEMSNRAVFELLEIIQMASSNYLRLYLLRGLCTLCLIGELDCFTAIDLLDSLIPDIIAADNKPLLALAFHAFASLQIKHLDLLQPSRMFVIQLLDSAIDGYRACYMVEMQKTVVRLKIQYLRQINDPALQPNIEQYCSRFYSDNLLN


How the values were obtained:
[1] = target: T1, S. cerevisiae Apc5 (S. cerevisiae); experiment: co-expression and co-purification; Apc4 expressed together with Apc5 and Apc15 (human, X. laevis, S. cerevisiae, S. pombe); an Apc4–Apc5 complex purified
S. pombe Apc5 (S. pombe) = target: T2, S. pombe Apc5 (S. pombe); experiment: as above

Binder	binding [1]	binding (S. pombe Apc5 (S. pombe))
S. cerevisiae Apc4 (protein, UniProt Q04601 1-652) MSSPINDYFIDYNPLFPIFATRIAKGLAIYRVSDHARLAVIPIRNINLVANYDWDTTTGKFLSIFFKDGTIRIHDIFKDGRLVSFLRIPSTKISKGIWDRIPLRYEPNNRDFACNIIDDLPKLIRFVKDSKRINIVPYTQPNSLWRGPDEDDLDSNEKLDVHVVFNEGNDKITVFFNGDYAVFLSVDNIENENSLKSIIKVQDGFYQCFYEDGTVQTLNLGPLLQSKSSVNLLNYIMVIKELIGYMLTHLEFINRELATPYLDFVKRLCDEAYGYGKLKSELEALFLLGEISCDLEDWLCNSVGEKNFKRWKYLGCEAYQKTVQILTLIFVPACERIIIYVEKLRAILQAFSIQNKLSYTSDLTAVEVLLKSSQKLLTMTLNSIIGLGRDETLFEKFFIWFNDRLHEALDEDYKLKFQFEDDLYFGYDLLSYFDRILSKKGTEPSSIIDVKLYRDLINSMSDMEKDIAQSNVNSHIQQHILVDLKTDVFAQKYPSSQINLLDAIKLPKHNYIVYLIQVTKHNSAQEPFSEENKKKLYIGTLKDENLGIISKESSVKIPALFKSYRLSSTRFVPNRVHSLLRDIGLSDSNYHSSHVTDYRGENYENEEDDGTIAIPAYIRENRENDDFIACTAKVSVDGRSASLVFPKEKQNV	binds	
S. pombe Apc4 (protein, UniProt O42839 1-719) MVSKSFKYPKKHKFEWINETNRVERVGSGLKRVILCPSMELIAILTCSNHLICCRSNSQRIWDVDFHDLEATELCWNHDGNLIVVGFKNGELKIIDSSTGHLVEQRPASRDLAVLMITWAMQETIVNEKRNDFLFDATAYMPLLGTLPSSAKEERIFSSKAIAQFFEPRKREGENNKKVELLSILDERGIRYINMFSSYKIGESDSLKSALNLGVPISHSITNDLAYHVLICKGGTNISLKTLYMPLLKNDLGSIVDIATMSTRMQHLVRYLEEVLNAMYEEFDNVFKSEASFIKTFDALVSKYSDTTFFSLQLELYQFIMNGIPSDLLKEWINERVGDRVLKNWERAMVNSYTSLIIFCQEFVIPACERLTVLLSSARGKSIWGHMKGNTLLDAKLVEDCLATLGYLQNNVFSFLNCLFEEKKYMKHFISWLNYAIVEFNTSEPSSIPPQEIIEHINETVIYIRHSLFRSKLTSYFMGTKPLQLRDPDYYSLKDFANQDDSNSVDDFVSFKTLKESLRDSFNVIFSYPSLTCQKQWLKTGDLVLFEGTDWNVSSLIPKSCNEKNQLFSLFFRKDTPNIFLIISQLMENTMLPVSGCHFGLDYAELLGSSLLDFQPATVLDMKLLNGSSILILGKLKEKCFLCEICLADVPLTFFEHQQKNSYLDAISHLPFIPLNSCLWLHEFEKDFLPSTLEYALSENSDYGVLISRESSRYRLFSF		binds

Source: publication PMC4590430
